From publication PMC3806365 come the findings set out here.

Protein sequences, listed by entry. Tags and fused reporters are not part of them.
UniProt P48722: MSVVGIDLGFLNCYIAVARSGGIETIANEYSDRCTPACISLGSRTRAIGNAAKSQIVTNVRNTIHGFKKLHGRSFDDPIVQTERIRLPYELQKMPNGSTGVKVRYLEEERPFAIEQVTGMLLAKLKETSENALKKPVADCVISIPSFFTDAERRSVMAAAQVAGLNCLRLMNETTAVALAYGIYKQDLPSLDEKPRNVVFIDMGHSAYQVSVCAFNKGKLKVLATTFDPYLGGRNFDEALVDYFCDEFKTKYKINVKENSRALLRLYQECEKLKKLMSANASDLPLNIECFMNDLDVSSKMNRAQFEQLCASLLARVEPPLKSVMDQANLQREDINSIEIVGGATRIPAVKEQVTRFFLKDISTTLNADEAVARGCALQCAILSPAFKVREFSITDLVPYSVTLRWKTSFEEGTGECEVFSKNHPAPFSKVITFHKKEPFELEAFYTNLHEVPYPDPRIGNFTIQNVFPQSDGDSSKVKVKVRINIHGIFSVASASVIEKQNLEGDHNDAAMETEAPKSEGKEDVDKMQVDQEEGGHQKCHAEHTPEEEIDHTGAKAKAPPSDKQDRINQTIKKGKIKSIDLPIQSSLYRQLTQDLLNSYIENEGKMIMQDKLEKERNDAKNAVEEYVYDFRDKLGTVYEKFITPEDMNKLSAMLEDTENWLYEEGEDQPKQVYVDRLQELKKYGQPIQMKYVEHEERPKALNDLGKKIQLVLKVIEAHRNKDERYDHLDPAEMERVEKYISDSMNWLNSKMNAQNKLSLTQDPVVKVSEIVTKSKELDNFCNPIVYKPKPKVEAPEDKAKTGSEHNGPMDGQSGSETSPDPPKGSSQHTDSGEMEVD

These are yes or no findings as the source states them, for the method shown. In cells and extracts the contact can be indirect. Some results given as binding are weak or reduced against the parent protein; the word gives no strength. For part of these data: Tags and fused reporters may be left off the sequences shown.

Experiment [1] has as its target T1, Nogo-A/RTN4-A (endogenous, mouse) (mouse (endogenous in brain and hippocampal neurons)) (UniProt Q99P72).
T1 sequence: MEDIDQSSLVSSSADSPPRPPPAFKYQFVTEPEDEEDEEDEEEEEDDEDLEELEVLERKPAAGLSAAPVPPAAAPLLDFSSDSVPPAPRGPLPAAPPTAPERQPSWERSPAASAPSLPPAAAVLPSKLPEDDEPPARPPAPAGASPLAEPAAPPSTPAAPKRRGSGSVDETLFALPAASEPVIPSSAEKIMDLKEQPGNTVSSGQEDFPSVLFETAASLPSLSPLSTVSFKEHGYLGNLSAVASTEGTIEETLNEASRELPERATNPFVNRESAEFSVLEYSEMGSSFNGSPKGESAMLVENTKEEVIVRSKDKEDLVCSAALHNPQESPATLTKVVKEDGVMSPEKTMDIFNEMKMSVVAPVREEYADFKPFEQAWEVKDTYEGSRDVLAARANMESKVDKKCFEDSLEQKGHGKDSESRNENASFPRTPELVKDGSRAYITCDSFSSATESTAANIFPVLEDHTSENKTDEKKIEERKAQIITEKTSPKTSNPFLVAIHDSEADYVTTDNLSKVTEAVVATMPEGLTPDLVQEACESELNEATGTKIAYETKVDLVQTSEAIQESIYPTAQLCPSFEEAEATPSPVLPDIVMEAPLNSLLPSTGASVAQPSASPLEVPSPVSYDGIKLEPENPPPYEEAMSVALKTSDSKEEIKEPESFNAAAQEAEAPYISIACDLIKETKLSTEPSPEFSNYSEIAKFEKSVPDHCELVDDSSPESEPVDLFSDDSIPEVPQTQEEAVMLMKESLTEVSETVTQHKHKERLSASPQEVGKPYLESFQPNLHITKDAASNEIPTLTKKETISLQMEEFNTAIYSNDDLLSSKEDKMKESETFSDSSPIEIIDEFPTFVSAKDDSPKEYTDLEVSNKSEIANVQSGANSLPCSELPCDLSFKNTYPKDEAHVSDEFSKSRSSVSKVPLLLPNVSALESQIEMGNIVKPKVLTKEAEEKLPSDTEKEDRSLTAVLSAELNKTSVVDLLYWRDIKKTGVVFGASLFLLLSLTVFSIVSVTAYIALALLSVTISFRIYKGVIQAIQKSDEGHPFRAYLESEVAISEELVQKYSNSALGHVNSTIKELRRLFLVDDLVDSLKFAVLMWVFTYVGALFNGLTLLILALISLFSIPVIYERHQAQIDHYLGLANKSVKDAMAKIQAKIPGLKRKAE
Briefly: co-IP; endogenous proteins, brain lysate from a 4-week-old mouse, 1 mg of total protein; 6 μg of rabbit anti-Nogo-A/B (Bianca), rabbit anti-Apg-1 or rabbit IgG; Western blot. On the technique in general: A western blot detects proteins with antibodies after separation by electrophoresis.

The target of experiment [2] is T1, Nogo-A/RTN4-A (endogenous, mouse) (mouse (endogenous in brain and hippocampal neurons)). Briefly: proximity ligation; endogenous Nogo-A and Apg-1 in mouse hippocampal neurons cultured for 20 days, Nogo+/+ against Nogo-/- neurons; also under hypoxic conditions (results not shown): no change in signals.
The target of experiment [3] is T2, Nogo-A–EGFP (full-length rat Nogo-A in pEGFP-N3) (rat) (UniProt Q9JK11).
T2 sequence: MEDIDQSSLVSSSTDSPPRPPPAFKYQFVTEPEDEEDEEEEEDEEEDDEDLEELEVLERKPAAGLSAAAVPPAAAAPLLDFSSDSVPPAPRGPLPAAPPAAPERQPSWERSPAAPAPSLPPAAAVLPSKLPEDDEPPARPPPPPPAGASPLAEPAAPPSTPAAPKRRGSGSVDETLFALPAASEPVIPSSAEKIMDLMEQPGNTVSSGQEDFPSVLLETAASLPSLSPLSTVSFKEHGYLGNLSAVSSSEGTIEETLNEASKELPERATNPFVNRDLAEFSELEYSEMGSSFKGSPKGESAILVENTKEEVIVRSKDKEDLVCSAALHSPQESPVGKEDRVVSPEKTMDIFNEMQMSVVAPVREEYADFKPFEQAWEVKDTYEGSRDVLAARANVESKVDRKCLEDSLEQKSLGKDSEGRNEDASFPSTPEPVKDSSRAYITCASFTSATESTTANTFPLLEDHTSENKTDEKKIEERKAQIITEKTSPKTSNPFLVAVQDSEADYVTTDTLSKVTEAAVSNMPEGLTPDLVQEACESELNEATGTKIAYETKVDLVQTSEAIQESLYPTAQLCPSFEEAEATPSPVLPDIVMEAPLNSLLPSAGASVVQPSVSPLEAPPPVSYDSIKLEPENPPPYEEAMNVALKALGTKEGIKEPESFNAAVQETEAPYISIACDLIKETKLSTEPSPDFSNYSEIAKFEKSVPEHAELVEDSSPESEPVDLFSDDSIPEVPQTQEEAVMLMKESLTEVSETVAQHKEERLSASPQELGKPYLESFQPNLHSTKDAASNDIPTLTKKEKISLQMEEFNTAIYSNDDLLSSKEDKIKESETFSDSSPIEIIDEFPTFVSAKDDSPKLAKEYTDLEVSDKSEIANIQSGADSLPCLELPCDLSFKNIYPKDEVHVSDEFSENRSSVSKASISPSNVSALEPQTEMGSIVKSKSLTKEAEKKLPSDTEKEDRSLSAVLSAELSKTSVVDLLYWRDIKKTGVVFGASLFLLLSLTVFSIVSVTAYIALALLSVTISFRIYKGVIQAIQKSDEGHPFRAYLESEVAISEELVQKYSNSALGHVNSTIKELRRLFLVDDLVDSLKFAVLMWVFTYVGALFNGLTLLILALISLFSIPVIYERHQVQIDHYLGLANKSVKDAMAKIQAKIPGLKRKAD
Put plainly: proximity ligation; adherent CHO-K1 cells transfected with Nogo-A–EGFP or Nogo-B–EGFP and EBFP2–Apg-1, fixed after 2 days; rabbit Bianca antiserum and mouse anti-Apg-1, Duolink probes.

On to “Apg-1 (endogenous, mouse) (from UniProt P48722 1-838)”, for which the binding entry in experiment [1] and in experiment [2] was “binds” in each case. On to “EBFP2–Apg-1 fusion protein (mouse Apg-1 open reading frame) (from UniProt P48722 1-838)”, for which, in experiment [3], the binding result is on record as “binds”.
